We go through eight compounds from patent publication US20250344731A1, “SALTY TASTE/UMAMI ENHANCER” (AJINOMOTO CO., INC., priority 2023, published 2025).

SMILES strings stand for the structures.

Data set [1] in a line: Sensory evaluation of umami enhancement function, naringenin/naringin added to sodium glutamate umami solution or water (Example 2). As to the method:
As shown in Table 4: Umami solution (weight g/100 g), an umami solution was prepared. Water at ordinary temperature was used for preparation. Water, naringenin (Penta manufacturing) or naringin (IKEDA CORPORATION) were weighed and added to each of the prepared umami solutions or water at various concentrations shown in Table 5: Prepared sensory evaluation samples. The umami intensity of each sample was blindly evaluated using a scoring system in 0.01 point increments, with the umami intensity of water in test plot 1 as 0 point, the umami intensity of NC in test plot 3 as 0.30 points, and the umami intensity of NC2 in test plot 4 as 0.10 point. The evaluation was performed by a trained panel of three, and the average score of each panel was used. Samples whose umami intensity was enhanced by 1.5 times or more (sodium glutamate 0.45 points or more, sodium aspartate 0.15 points or more) due to the addition were evaluated to “have an umami enhancement function”. In addition, the presence or absence, and intensity of off-taste (bitterness and harsh taste other than umami) were also evaluated. The evaluation results are shown in Table 6: Sensory evaluation (umami intensity).

Data set [2] is described as follows: Taste of naringenin itself (description). The conditions noted are these: at about 1000 weight ppm.
Data set [3] is described as follows: Sensory evaluation of saltiness enhancement function, naringenin/naringin added to NaCl aqueous solution (Example 1). The protocol:
As shown in Table 1: NaCl aqueous solution (weight g/100 g), various NaCl aqueous solutions (saline solutions) were prepared. Filtered water at ordinary temperature was used for preparation. Water, naringenin (Penta Manufacturing), or naringin (IKEDA CORPORATION) were weighed and added to the prepared 0.8% aqueous solution at various concentrations shown in Table 2: Prepared sensory evaluation samples. The saltiness intensity of each sample was blindly evaluated using a scoring system in 0.1 point increments, with the saltiness intensity of NC in test plot 1 as 1.00 point and the saltiness intensity of PC in test plot 2 as 5.5 points. The evaluation was performed by a trained panel of three, and the average score of each panel was used. Samples with a saltiness intensity of 1.8 points or more (NaCl 0.84% or more) due to the addition were evaluated to “have a saltiness enhancement function”. In addition, the presence or absence, and intensity of off-taste (bitterness and harsh taste other than saltiness) were also evaluated. The evaluation results are shown in Table 3: Sensory evaluation (saltiness intensity).

A short description of data set [4]: Sensory evaluation of umami enhancement function, naringenin-related flavonoid components in umami solution (Example 4). The note with it: 30 ppm in NC (sodium glutamate 0.1%). The protocol:
• 1) The five naringenin-related flavonoid components evaluated in Example 3 were used. • 2) Quercetin was used as the control component. Umami solutions were prepared as shown in Table 10: Umami solution (weight g/100 g). Water at ordinary temperature was used for preparation. Each naringenin-related flavonoid component and the like dissolved in propylene glycol (SIGMA) at 10000 ppm was added to the prepared 0.1% umami aqueous solution such that the concentration at the time of eating was 30 ppm (Table 11). The umami intensity of each sample was blindly evaluated using a scoring system in 0.05 point increments, with the umami intensity of water in test plot 1 as 0 point and the umami intensity of NC in test plot 2 as 0.30 points. The evaluation was performed by a trained panel of three, and the average score was used. The umami enhancement function of samples whose umami intensity was enhanced by 1.5 times or more (sodium glutamate 0.45 points or more) due to the addition was evaluated to be functional. In addition, the presence or absence, and intensity of off-taste (bitterness and harsh taste other than umami) were also evaluated. The evaluation results are shown in Table 12: Sensory evaluation (umami intensity).

Data set [5] in a line: Sensory evaluation of saltiness enhancement function, naringenin-related flavonoid components in NaCl aqueous solution (Example 3). The conditions noted are these: 30 ppm in NC salt water (NaCl 0.8%). The source says: 1) The following flavonoid components were used as naringenin-related flavonoid components: • Luteolin (manufactured by Salus Nutra Inc.), pinocembrin (manufactured by Xi'an Demeter Biotech Co., Ltd.), liquiritigenin (manufactured by Xi'an Julong Import and Export Co., Ltd.), apigenin (manufactured by Xi'an Best Bio-Tech Co., Ltd.), and acacetin (manufactured by Xi'an Reain Biotechnology Co., Ltd.)
2) The following compound was used as control component: Quercetin (manufactured by Medience Corporation) (structure shown below)
As shown in Table 7: NaCl aqueous solution (weight g/100 g), various NaCl aqueous solutions (saline solutions) were prepared. Water at ordinary temperature was used for preparation.
Each naringenin-related flavonoid component dissolved in propylene glycol (SIGMA) at 10000 ppm was added to the prepared 0.8% salt water solution such that the concentration at the time of eating (corresponding to the content of the present flavonoid component or a salt thereof in the oral ingestion product at the time of oral ingestion, as a flavonoid component relative to the oral ingestion product) was 30 ppm (Table 8).
The saltiness intensity of each sample was blindly evaluated using a scoring system in 0.5 point increments, with the saltiness intensity of NC in test plot 1 as 1.0 point, the saltiness intensity of PC1 as 2.0 points, and the saltiness intensity of PC2 as 3.0 points. The evaluation was performed by a trained panel of three, and the average score was used. Since the saltiness intensity of 2.0 points of PC1 is evaluated to be clearly stronger in saltiness than NC, samples with a saltiness intensity of 1.5 points or more (NaCl 0.85% or more) were evaluated to have a saltiness enhancement function. In addition, the presence or absence, and intensity of off-taste (bitterness and harsh taste other than saltiness) were also evaluated. The evaluation results are shown in Table 9: Sensory evaluation (saltiness intensity).

The mark [6] stands for this setting: addition to umami solution (sodium glutamate, sodium aspartate), 30 ppm.
Setting [7] is: addition of 1 ppm or more to salt water.

Consider `O=C1C[C@@H](c2ccc(O)cc2)Oc2cc(O)cc(O)c21` (stereo in doubt) [Naringenin, 5,7-dihydroxy-2-(4-hydroxyphenyl)chroman-4-one], for which the off-taste entry in data set [1] (30 ppm added to NC1 (MSG, sodium glutamate 0.1%)) is recorded as “none”; in data set [1] (30 ppm added to water), “none”; in data set [1] (setting [6]), “without imparting an off-taste”; in data set [3] (1 ppm added to NC salt water (NaCl 0.8%)) it was “none”; in data set [3] (5 ppm added to NC salt water (NaCl 0.8%)) it was “none”; in data set [3] (10 ppm added to NC salt water (NaCl 0.8%)), “none”. The off-taste entry is “none” in data set [3] (30 ppm added to NC salt water (NaCl 0.8%)), “none” in data set [3] (30 ppm added to water (NaCl 0%)) and “without imparting an off-taste” in data set [3] (setting [7]). Besides, the bitterness entry in data set [2] is given as “no bitterness”. Also, the taste result in data set [2] is recorded as “slightly sweet”.

For `COc1ccc(-c2cc(=O)c3c(O)cc(O)cc3o2)cc1` [Acacetin, 5,7-dihydroxy-4-methoxyflavone], the off-taste entry in data set [4] and in data set [5] was “none” throughout.

As to `O=c1cc(-c2ccc(O)cc2)oc2cc(O)cc(O)c12` [Apigenin, 5,7-dihydroxy-2-(4-hydroxyphenyl)-4H-1-benzopyran-4-one], the off-taste entry in data set [4] and in data set [5] was “none” in each case.

Take `O=C1C[C@@H](c2ccc(O)cc2)Oc2cc(O)ccc21` [Liquiritigenin, (2S)-4′,7-dihydroxyflavan-4-one]: the off-taste result in data set [4] and in data set [5] was “none” each time.

As to `O=c1cc(-c2ccc(O)c(O)c2)oc2cc(O)cc(O)c12` [Luteolin, 2-(3,4-dihydroxyphenyl)-5,7-dihydroxy-4-chromenone], the off-taste entry in data set [4] and in data set [5] was “none” in each case.

With `C[C@@H]1O[C@@H](O[C@H]2[C@H](Oc3cc(O)c4c(c3)O[C@H](c3ccc(O)cc3)CC4=O)O[C@H](CO)[C@@H](O)[C@@H]2O)[C@H](O)[C@H](O)[C@H]1O` [Naringin, naringin, reference compound], the “off-taste” value was “imparted a bitter taste” in data set [1] (setting [6]) and “an unpleasant bitterness was simultaneously imparted” in data set [3] (setting [7]).

On to `O=C1CC(c2ccccc2)Oc2cc(O)cc(O)c21` (stereo not shown) [Pinocembrin, 5,7-dihydroxy-2-phenyl-2,3-dihydro-4H-chromene-4-one], for which the off-taste entry in data set [4] and in data set [5] was “none” each time.

Consider `O=c1c(O)c(-c2ccc(O)c(O)c2)oc2cc(O)cc(O)c12` [Quercetin, reference compound], for which the off-taste entry in data set [4] and in data set [5] was “bitter” in each case.
